The values that follow come from doi:10.1101/2022.01.06.474281.

No constants are given. Whether binding was seen depends on the method and setting. A result given as binding can be weak or reduced; the word gives no strength. Sequences can lack the tags named with a protein.

In this assay the target is T1, RETINOBLASTOMA RELATED (RBR), Arabidopsis, yeast two-hybrid fusion in pDEST32 (Arabidopsis thaliana) (UniProt Q9LKZ3).
T1 sequence: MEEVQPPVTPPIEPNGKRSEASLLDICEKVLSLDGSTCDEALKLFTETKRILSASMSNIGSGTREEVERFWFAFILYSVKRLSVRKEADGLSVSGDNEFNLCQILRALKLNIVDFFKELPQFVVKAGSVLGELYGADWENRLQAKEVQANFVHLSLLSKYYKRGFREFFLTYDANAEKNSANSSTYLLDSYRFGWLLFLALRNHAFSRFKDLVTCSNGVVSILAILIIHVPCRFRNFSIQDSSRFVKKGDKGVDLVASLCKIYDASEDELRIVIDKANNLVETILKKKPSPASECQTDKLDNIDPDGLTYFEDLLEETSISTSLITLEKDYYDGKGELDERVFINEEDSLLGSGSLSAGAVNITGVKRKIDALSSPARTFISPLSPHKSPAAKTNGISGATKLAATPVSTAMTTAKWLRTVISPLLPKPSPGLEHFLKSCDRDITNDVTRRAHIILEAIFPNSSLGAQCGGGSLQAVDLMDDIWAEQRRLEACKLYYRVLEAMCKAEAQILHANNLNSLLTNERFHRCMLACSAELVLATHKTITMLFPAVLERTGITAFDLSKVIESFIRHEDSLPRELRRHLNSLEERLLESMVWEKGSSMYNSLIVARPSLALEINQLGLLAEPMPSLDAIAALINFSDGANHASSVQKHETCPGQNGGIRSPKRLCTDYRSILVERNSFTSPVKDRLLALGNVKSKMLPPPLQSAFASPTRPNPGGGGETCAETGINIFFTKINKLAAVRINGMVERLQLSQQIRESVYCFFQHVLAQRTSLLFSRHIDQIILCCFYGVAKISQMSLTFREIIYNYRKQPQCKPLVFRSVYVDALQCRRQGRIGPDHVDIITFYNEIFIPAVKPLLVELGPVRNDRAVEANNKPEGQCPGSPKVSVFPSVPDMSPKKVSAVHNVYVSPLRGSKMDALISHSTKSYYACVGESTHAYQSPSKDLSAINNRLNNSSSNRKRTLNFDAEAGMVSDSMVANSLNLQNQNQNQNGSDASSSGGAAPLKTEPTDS
Nature of the assay: two-hybrid.

On to “M. polymorpha DCL3 ortholog, yeast two-hybrid fusion”, for which the binding entry is listed as “binds”.
